Screen size: about 390,000 compounds; about 4,000 (1%) were called active. The shares of active, inactive and inconclusive entries below differ from those in the screen. Calls come from the whole dose curve; as a rule, active = well fitted inhibition curve with a large enough effect; inconclusive = small, poorly fitted or top-dose-only effect, or another doubt; inactive = no such curve, though single readings can be large or run the other way. Where the call is inconclusive, the potency comes from a doubtful curve fit.
What follows are molecules tested against DNA polymerase iota (Homo sapiens) (UniProt Q9UNA4) (assay: qHTS for Inhibitors of Polymerase Iota). Settings: Pol iota fluorescent replication assay, 10 min; series mostly up to 115 µM.
Procedure, shortened: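 Pol iota at 10 nM preincubated 15 min with compounds at room temperature; reaction started with fluorescent substrate, 50 nM final. Fluorescence read kinetically at 0 and 10 min; buffer-only wells as negative control.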
Potency is the fitted concentration of half-maximal effect.

Protein sequences, listed by entry. Tags and fused reporters are not part of them. Lines headed by an entry give the natural chain unless they say otherwise; changes in a name come on top.
UniProt Q9UNA4: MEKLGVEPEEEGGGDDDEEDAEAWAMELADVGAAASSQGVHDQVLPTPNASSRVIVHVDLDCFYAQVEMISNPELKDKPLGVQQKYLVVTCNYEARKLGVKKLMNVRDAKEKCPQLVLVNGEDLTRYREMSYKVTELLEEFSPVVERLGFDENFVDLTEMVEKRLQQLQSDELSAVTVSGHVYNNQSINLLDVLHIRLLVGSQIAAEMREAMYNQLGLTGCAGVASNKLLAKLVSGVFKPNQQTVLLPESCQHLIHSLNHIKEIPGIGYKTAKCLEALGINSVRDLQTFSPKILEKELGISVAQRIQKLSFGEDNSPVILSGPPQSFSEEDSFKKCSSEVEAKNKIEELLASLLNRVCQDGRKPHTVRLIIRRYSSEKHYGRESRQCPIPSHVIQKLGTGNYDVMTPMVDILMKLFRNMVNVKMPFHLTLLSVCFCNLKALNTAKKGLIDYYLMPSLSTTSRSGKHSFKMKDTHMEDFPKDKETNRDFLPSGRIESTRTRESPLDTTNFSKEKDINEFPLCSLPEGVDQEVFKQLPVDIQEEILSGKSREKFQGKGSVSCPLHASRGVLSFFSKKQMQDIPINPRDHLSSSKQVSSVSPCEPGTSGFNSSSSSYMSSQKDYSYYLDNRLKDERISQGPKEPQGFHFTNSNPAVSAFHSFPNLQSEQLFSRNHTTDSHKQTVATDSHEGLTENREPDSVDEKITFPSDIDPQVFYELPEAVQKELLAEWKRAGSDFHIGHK

SMILES | Potency
O=C(NS(=O)(=O)c1ccc2c(c1)OCCO2)c1ccccc1 | inconclusive: 39.8 µM [inhibitor, partial curve, poor fit]
O=C(Cn1c(NCCCO)nc2ccccc21)c1ccco1 | inconclusive: 89.1 µM [inhibitor, single point]
CC(C)(C)n1nnnc1C(c1ccc(Cl)cc1)N(Cc1cccnc1)Cc1ccco1 (centres undefined) | inconclusive: 2.51 µM [inhibitor, partial curve, poor fit]
COc1cccc(OC)c1OC(=O)C1CC(=O)N(c2ccc3c(c2)OCCO3)C1 (centres undefined) | active: 25.1 µM
Cc1ccc(CNC(=O)c2ccc(CNS(=O)(=O)c3ccc4c(c3)C(C)(C)C(=O)N4C)cc2)o1 | inconclusive: 2.51 µM [inhibitor, full curve, poor fit]
O=C(Nc1ccc2oc(-c3ccc4ccccc4c3)nc2c1)c1cc(Br)ccc1Cl | inconclusive: 89.1 µM [inhibitor, single point]
Nc1cc(N)nc(SCC(=O)N2CCN(S(=O)(=O)c3ccccc3)CC2)n1 | inconclusive: 89.1 µM [inhibitor, single point]
CNS(=O)(=O)c1cccc(C(=O)OCC(=O)c2ccc(S(=O)(=O)N3CCCCC3)cc2)c1 | inactive
CC(=O)c1cccc(NC(=O)CSc2ccc(-c3ccc4c(c3)OCO4)nn2)c1 | inactive
O=C(Nc1ccccc1)c1nn(-c2cccc(C(F)(F)F)c2)ccc1=O | inconclusive: 89.1 µM [inhibitor, single point]
Oc1ccc(N=Nc2ccccc2)o1 | inactive
Cn1c(-c2ccc(N)cc2)nc2ccccc21 | inactive
O=C1C(Cl)=C(NC(=O)c2ccccc2)C(=O)C(Cl)=C1NC(=O)c1ccccc1 | active: 1.58 µM
CCOC(=O)C1CCN(C(=O)COC(=O)c2cc([N+](=O)[O-])ccc2N2CCOCC2)CC1 | inactive
O=C(Oc1ccccc1C(=O)Oc1ccccc1)c1ccco1 | inconclusive: 112 µM [inhibitor, partial curve, poor fit]
COc1ccc(NC(=O)C2CCN(S(=O)(=O)c3c(C)noc3/C=C/c3ccco3)CC2)cc1 | inconclusive: 56.2 µM [inhibitor, partial curve, poor fit]
CCOC(=O)CNC(=S)N(CCCN1CCN(C)CC1)Cc1cccs1 | inconclusive: 1.78 µM [inhibitor, full curve, poor fit]
CC(C)CCn1c(N)c(S(=O)(=O)c2cccs2)c2nc3ccccc3nc21 | inconclusive: 31.6 µM [inhibitor, single point]
O=C(OCc1cc(=O)n2ccsc2n1)c1ccccc1O | inconclusive: 56.2 µM [inhibitor, partial curve, poor fit]
Oc1c(Cl)cc(Cl)cc1/C=N/NC(=S)NC1CC2C=CC1C2 (centres undefined) | inconclusive: 10 µM [inhibitor, full curve, poor fit]
Cc1cc(C)c(Cn2c(=O)n(CCCCCC(=O)NCc3ccc4c(c3)OCO4)c(=O)c3sccc32)c(C)c1 | inactive
Cc1ccc(N2C(=O)CC(n3ccnc3)C2=O)cc1C (centres undefined) | inconclusive: 31.6 µM [inhibitor, single point]

SMILES | Potency
O=C(CN1CCN(S(=O)(=O)/C=C/c2ccccc2)CC1)NC(=O)NCc1ccco1 | inconclusive: 56.2 µM [inhibitor, partial curve, poor fit]
COC(=O)c1c(C(=O)OC)c(-c2ccc(Cl)c(Cl)c2)n2c1CCC2 | inactive
O=C(CNC(=S)N(Cc1ccc(F)cc1)C1CCCCC1)NC1CC1 | inconclusive: 79.4 µM [inhibitor, partial curve, poor fit]
CC(C)(C)NNC(=S)Nc1ccc(S(=O)(=O)N2CCOCC2)cc1 | inconclusive: 89.1 µM [inhibitor, single point]
COc1ccccc1Nc1nc(C)cs1 | inconclusive: 39.8 µM [inhibitor, single point]
CCOC(=O)C(=O)NNc1ccc(F)cc1 | inactive
CNc1nnc(CSc2nc3ccccc3s2)s1 | inconclusive: 7.94 µM [inhibitor, partial curve, poor fit]
O=C(NC1CCCC1)C(c1ccccc1)N(C(=O)c1ccco1)C1CCCC1 (centres undefined) | inconclusive: 89.1 µM [inhibitor, partial curve, poor fit]
Cc1ccc(OCC(=O)Nc2cc(C(=O)O)cc(C(=O)O)c2)cc1C | inactive
O=C(O)c1cc(S(=O)(=O)Nc2ccc3cn[nH]c3c2)ccc1Br | inconclusive: 22.4 µM [inhibitor, partial curve, poor fit]
COc1ccccc1-c1cc(C(F)(F)F)nc(S(=O)(=O)CCCC(=O)Nc2cc(Br)ccc2O)n1 | inconclusive: 12.6 µM [inhibitor, full curve, poor fit]
CC1(C)C(=O)Nc2ccccc2N1C(=O)COC(=O)COc1ccc(C#N)cc1 | inconclusive: 50.1 µM [inhibitor, partial curve, poor fit]
CN(C(=O)CSc1nc2ccccc2s1)c1c(N)n(Cc2ccccc2)c(=O)[nH]c1=O | inconclusive: 63.1 µM [inhibitor, single point]
CCOc1cc2[nH]c(=S)n(CCC(=O)N3CCc4ccccc4C3)c(=O)c2cc1OCC | inconclusive: 100 µM [inhibitor, single point]
Cc1c(Cl)cnn1CC(=O)NC1C(=O)N2C(C(=O)O)=C(CSc3nnnn3C)CSC12 (centres undefined) | inconclusive: 22.4 µM [inhibitor, full curve]
COc1cc(/C=C2\C(=O)ON=C2c2ccccc2)cc(Cl)c1O | inconclusive: 3.16 µM [inhibitor, single point]
CCN(CC)S(=O)(=O)c1ccc(NC(=O)c2cc3ccc4cccnc4c3[nH]2)cc1 | inconclusive: 100 µM [inhibitor, single point]
O=C(CN1C(=O)C(=O)c2ccccc21)NC1CCCCC1 | inconclusive: 12.6 µM [inhibitor, partial curve, poor fit]
Cc1nnc(SCC2=C(C(=O)O)N3C(=O)C(NC(=O)Cn4ncc(Cl)c4C)C3SC2)s1 (centres undefined) | inconclusive: 39.8 µM [inhibitor, partial curve]
COc1ccc(NC(=O)Nc2ccc(OC)c(OC)c2)c([N+](=O)[O-])c1 | inactive
COc1ccc(Cn2c(=O)n(-c3ccc(F)c(Cl)c3)c(=O)c3c2c2cc(OC)ccc2n3C)cc1 | inactive
Cc1ccc(N=Nc2c(C)[nH]n(-c3ccccc3)c2=O)cc1Br | inconclusive: 3.98 µM [inhibitor, full curve, poor fit]

SMILES | Potency
O=C1Nc2ccccc2SC(c2ccccc2)C1O (centres undefined) | inconclusive: 15.8 µM [inhibitor, full curve, poor fit]
CN1C(=O)c2ccccc2NC(=O)[C@]12O[C@@H]2c1cccc(O)c1 | inconclusive: 31.6 µM [inhibitor, partial curve, poor fit]
CC(C)C(NS(=O)(=O)c1ccc2c(c1)oc(=O)n2C)C(=O)N1CCN(c2cccc(Cl)c2)CC1 (centres undefined) | inactive
O=[N+]([O-])c1cc(Br)c(O)c(C=Nc2ccc(N3CCOCC3)cc2)c1 | inconclusive: 10 µM [inhibitor, partial curve]
C(=C\c1ccco1)/c1ccc2ccccc2n1 | inconclusive: 22.4 µM [inhibitor, full curve]
O=C(O)C1CCCCC1C(=O)NC1CCCCC1 (centres undefined) | inconclusive: 112 µM [inhibitor, single point]
CCOC(=O)CNC(=O)c1sc(NC(=O)c2cccc(F)c2)nc1C | inconclusive: 22.4 µM [inhibitor, partial curve, poor fit]
Cc1cccc(NC(=O)CN2CCN(C(=O)c3cccc(-n4cnnn4)c3)CC2)c1C | inactive
N#Cc1c(Cl)nc(-c2ccncc2)nc1-c1ccccc1 | inconclusive: 7.08 µM [inhibitor, full curve, poor fit]
COc1ccc(OC)c(N(CC(=O)N2CCN(c3cc(Cl)ccc3C)CC2)S(C)(=O)=O)c1 | inconclusive: 112 µM [inhibitor, partial curve, poor fit]
C=CC(=O)Nc1cccc(Oc2ccnc3[nH]ccc23)c1 | inconclusive: 10 µM [inhibitor, partial curve, poor fit]
COc1ccccc1C1C2=C(CC(C)(C)CC2=O)N(CC(=O)O)C2=C1C(=O)CC(C)(C)C2 | inconclusive: 63.1 µM [inhibitor, partial curve, poor fit]
OCCNC(=S)Nc1ccc2nsnc2c1 | active: 20 µM
Cc1ccc(NC(=O)C2CC(=O)N(c3ccccc3Cl)C2)cc1S(=O)(=O)N1CCOCC1 (centres undefined) | inactive
CCCNC(=O)c1ccc(Cn2cc(C(F)(F)F)ccc2=O)cc1 | active: 89.1 µM
CCc1ccc(NC(=O)CN(c2ccccc2)S(=O)(=O)N(C)C)cc1 | inconclusive: 56.2 µM [inhibitor, partial curve, poor fit]
c1ccc(-c2ccc3c(c2)NC(C2Nc4cc(-c5ccccc5)ccc4O2)O3)cc1 (centres undefined) | inconclusive: 28.2 µM [inhibitor, full curve, poor fit]
Cc1ccc(NC(=O)CS(=O)CC(=O)NCCCc2ccccc2)cc1Cl (centres undefined) | inconclusive: 79.4 µM [inhibitor, partial curve, poor fit]
O=C(Nc1ccc(Cl)cc1)Nc1ccccc1Sc1ncc([N+](=O)[O-])s1 | inconclusive: 39.8 µM [inhibitor, single point]
COc1cc(C(=O)N/N=C/c2ccc3c(c2)c2ccccc2n3C)ccc1O | active: 17.8 µM

Part of the list above in another layout.
COc1ccccc1C1C2=C(CC(C)(C)CC2=O)N(CC(=O)O)C2=C1C(=O)CC(C)(C)C2
  Potency: inconclusive: 63.1 µM [inhibitor, partial curve, poor fit]
CCc1ccc(NC(=O)CN(c2ccccc2)S(=O)(=O)N(C)C)cc1
  Potency: inconclusive: 56.2 µM [inhibitor, partial curve, poor fit]
Cc1ccc(NC(=O)CS(=O)CC(=O)NCCCc2ccccc2)cc1Cl (centres undefined)
  Potency: inconclusive: 79.4 µM [inhibitor, partial curve, poor fit]

Source: PubChem BioAssay AID588590 (National Center for Advancing Translational Sciences (NCATS), 2011)
